Measured values taken from US6962920B2, “Pyrimidine derivatives and methods of making and using these derivatives” (Duquesne University of the Holy Ghost, priority 1992, dated 2005).
At least one compound was matched to its structure with a doubt left.

Biological target: T1, CCRF-CEM human leukemia cell folylpolyglutamate synthetase (Homo sapiens, UniProt Q05932)
T1 construct: substrates for human leukemia cell CCRF-CEM folylpolyglutamate synthetase; endogenous in cells; host or cells: CCRF-CEM human leukemia cells
T1 sequence (Q05932 43-587): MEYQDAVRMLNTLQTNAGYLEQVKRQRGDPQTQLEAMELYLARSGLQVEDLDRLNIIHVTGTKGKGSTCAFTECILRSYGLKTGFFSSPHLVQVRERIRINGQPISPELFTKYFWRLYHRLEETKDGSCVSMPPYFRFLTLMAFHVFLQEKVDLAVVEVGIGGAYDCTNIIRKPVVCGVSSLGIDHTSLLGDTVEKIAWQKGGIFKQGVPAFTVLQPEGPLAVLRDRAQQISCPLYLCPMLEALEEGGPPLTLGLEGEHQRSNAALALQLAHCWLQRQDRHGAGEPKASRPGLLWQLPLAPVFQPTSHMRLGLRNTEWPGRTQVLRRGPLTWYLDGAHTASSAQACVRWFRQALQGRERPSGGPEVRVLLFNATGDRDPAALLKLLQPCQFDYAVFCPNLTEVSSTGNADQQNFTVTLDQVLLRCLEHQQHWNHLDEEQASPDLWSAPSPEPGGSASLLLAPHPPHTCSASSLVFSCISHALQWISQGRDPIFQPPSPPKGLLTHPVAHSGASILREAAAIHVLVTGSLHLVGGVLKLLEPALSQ
Test: Substrate activity for CCRF-CEM folylpolyglutamate synthetase
Format: biochemical
Procedure: Aminopterin is a classical 2,4-diamino antifolate substrate.
Compounds 33 and 34 were also evaluated for their substrate activity in CCRF-CEM human leukemia folylpolyglutamate synthetase; the compounds were compared against aminopterin.

Measured: Vmax,rel

Nc1nc(N)c2nc(CNc3ccc(C(=O)N[C@@H](CCC(=O)O)C(=O)O)cc3)cnc2n1 [Aminopterin, reference compound]
1: Table 10, relative to aminopterin | Table 18 | Table 21
